From publication PMC5637322
No constants are given. Whether binding was seen depends on the method and setting. In cells and extracts the contact can be indirect. Some binding calls cover weakened binding; strength is not graded here.

By UniProt entry, the sequences of proteins in these tests, tags left out. Residues count along the entry.
UniProt P05106, residues 27-788: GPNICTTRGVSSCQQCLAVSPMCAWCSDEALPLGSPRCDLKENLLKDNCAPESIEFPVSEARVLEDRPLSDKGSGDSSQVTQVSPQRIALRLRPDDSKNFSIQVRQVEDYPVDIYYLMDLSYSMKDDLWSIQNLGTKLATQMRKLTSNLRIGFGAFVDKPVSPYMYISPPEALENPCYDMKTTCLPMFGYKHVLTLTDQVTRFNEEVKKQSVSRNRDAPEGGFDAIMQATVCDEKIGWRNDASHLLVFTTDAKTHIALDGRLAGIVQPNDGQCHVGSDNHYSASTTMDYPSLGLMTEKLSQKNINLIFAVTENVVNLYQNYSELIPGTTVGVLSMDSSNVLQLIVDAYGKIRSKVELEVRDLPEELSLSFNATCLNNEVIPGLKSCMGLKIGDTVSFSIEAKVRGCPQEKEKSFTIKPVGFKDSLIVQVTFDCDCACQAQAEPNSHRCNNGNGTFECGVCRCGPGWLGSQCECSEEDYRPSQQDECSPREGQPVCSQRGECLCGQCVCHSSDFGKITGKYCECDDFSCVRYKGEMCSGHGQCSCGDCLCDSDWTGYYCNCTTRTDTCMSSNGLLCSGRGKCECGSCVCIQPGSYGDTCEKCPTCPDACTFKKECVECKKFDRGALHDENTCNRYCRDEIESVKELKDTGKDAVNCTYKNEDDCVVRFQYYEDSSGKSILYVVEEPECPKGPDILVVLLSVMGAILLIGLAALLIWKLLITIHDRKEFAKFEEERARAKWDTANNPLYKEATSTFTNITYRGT
UniProt Q96CG8, residues 31-243: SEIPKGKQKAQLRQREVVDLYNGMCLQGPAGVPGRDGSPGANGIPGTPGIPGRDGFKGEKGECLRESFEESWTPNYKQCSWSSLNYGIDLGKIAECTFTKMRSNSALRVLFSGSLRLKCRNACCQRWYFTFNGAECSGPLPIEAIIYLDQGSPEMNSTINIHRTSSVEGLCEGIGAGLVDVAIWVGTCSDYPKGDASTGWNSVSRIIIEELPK

Molecular target: integrin β3 (human (endogenous in SKOV3)) (UniProt P05106)
Assay: co-IP; SKOV3 cell lysates pretreated with Protein A/G Sepharose beads, incubated with integrin β3 antibodies (Abcam) and IgG as control at 4 °C overnight; beads washed with PBS with 1% PMSF; Western blotting

- binding: binds
Substance: Collagen triple helix repeat containing-1 (CTHRC1) (from UniProt Q96CG8 31-243)
